Results published in PMC9359109.
No constants are given. Whether binding was seen depends on the method and setting. In cells and extracts the contact can be indirect. Some results given as binding are weak or reduced against the parent protein; the word gives no strength.

Target: transporter associated with antigen presentation (TAP), TAP1 subunit (human (endogenous in HeLa)) (UniProt Q03518)
Test: co-IP; HeLa lines pre-treated with NEM (20 mM, pH 7.4), lysed in 1% digitonin, precleared, immunoprecipitated with anti-TAP1 or anti-tapasin antibodies, non-reducing 8% SDS-PAGE, immunoblot (anti-V5; ERp57)

- binding: binds
Substance: ERp57 (from UniProt P30101 25-505)
